The whole screen tested about 360,000 compounds, of which about 7,500 (2.1%) were called active. Inconclusive means that the source gave no clear call. Such entries were picked first, then a sample of the others. Calls come from the whole dose curve; as a rule, active = well fitted inhibition curve with a large enough effect; inconclusive = small, poorly fitted or top-dose-only effect, or effect the other way; inactive = flat fitted curve, though single readings scatter. Potencies beside an inconclusive call are fits to weak or partial responses and may not hold up.
Test: Nrf2 qHTS screen for inhibitors; note: nearly all actives have a fitted effect of over 60% in size
Conditions: A549 ARE-Fluc reporter, luciferase luminescence, 18-24 h; activity change, negative = inhibition: at 46 µM (top of the series)
Procedure, shortened: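 Two sequential reads on A549 ARE_Fluc cells exposed to compound for 18-24 h: a CellTiter-Fluor fluorescence read for viability, then a luciferase luminescence read for Nrf2/ARE activity.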
% is set by controls: 0 for no effect and ±100 for the full control effect; potency is the fitted concentration of half-maximal effect.

SMILES | Potency | activity change, negative = inhibition
Cc1cc(NC(=O)c2cc3n(n2)C(C(F)(F)F)CC(c2ccc(Cl)c(Cl)c2)N3)no1 (stereo not given) | inconclusive: 2.31 µM [falling, full curve, poor fit] | 
CN(CCCNC(=O)CSc1cc(=O)n(C)c2cc(Cl)ccc12)Cc1ccccc1 | inconclusive: 29.1 µM [activator, single point] | 
CC(NC(=O)c1ccccc1NC(=O)CN1CCc2ccccc2C1)c1ccccc1 (stereo not given) | inconclusive: 20.6 µM [activator, single point] | 
COc1ccccc1NC(=O)c1ccc(-n2ccnc2)c([N+](=O)[O-])c1 | inconclusive: 6.51 µM [activator, partial curve, poor fit] | 
COc1ccccc1C(=O)Nc1c(C(=O)N(C)Cc2ccccc2)sc2nc(C)c(Cl)c(C)c12 | active: 14.6 µM | 
CCOC(=O)CNC(=O)Cc1ccc(Cl)cc1 |  | inactive: 4.53%
Cc1ccc(C)c(CNc2ccc(S(=O)(=O)N3CCCCC3)cc2)c1 | inconclusive: 6.51 µM [falling, full curve, poor fit] | 
CCN(CC)CCNC(=O)c1cc(-c2cccnc2)nc2ccc(S(=O)(=O)N3CCC(C)CC3)cc12 | inconclusive: 14.6 µM [falling, partial curve, poor fit] | 
CC(=O)OCC(=O)Nc1ccc(N=Nc2ccccc2)cc1 | inconclusive: 5.8 µM [activator, full curve] | 
CCOc1ccccc1CNC(=O)C1CCCN(c2ncnc3onc(-c4ccc(F)cc4)c23)C1 (stereo not given) | inconclusive: 0.0046 µM [falling, full curve, poor fit] | 
CCCCOc1ccc(CN=C(N)N)cc1Cl | inconclusive: 32.6 µM [falling, partial curve, poor fit] | 
O=C(NCc1cccs1)C1CCCN(C(=O)Nc2ccc(F)cc2)C1 (stereo not given) | inconclusive: 14.6 µM [falling, partial curve] | 
O=C(Nc1ccc(Cl)cc1)c1cc2nc(C3CC3)cc(C(F)(F)F)n2n1 | inconclusive: 25.9 µM [falling, single point] | 
COc1cccc(-c2cc(C(F)(F)F)nc(NCCc3ccccc3)n2)c1 |  | inactive: 4.43% [at 9.27 µM]
Clc1ccc(CNc2ncccn2)cc1 | inconclusive: 1.84 µM [activator, full curve] | 
Cc1nn(-c2ccc(F)cc2)c2sc(C(=O)N3CCCCCC3)cc12 | inconclusive: 7.31 µM [activator, partial curve, poor fit] | 
Cc1cc(O)c(C(=O)/C=C/c2ccc(C(C)C)cc2)c(=O)o1 | inconclusive: 10.3 µM [activator, single point] | 
CCCCc1ccc(NC(=S)NCCO)cc1 | inconclusive: 11.6 µM [activator, partial curve] | 
O=C(NO)c1ccc(C(=O)N(C2CCCCC2)C2CCCCC2)cc1 | inconclusive: 18.4 µM [falling, single point] | 
COc1ccccc1CCNC(=O)c1ccc2c(c1)c(C)c(C)n2Cc1ccc(Cl)cc1 | inconclusive: 2.06 µM [falling, single point] | 
O=C(NCc1ccccc1Cl)C1CCCN(C(=O)c2cnn(-c3ccccc3)c2-n2cccc2)C1 (stereo not given) | inconclusive: 25.9 µM [falling, single point] | 
CC1CN(Cc2csc(-c3ccc(Cl)cc3)n2)CC(C)O1 (stereo not given) | inconclusive: 3.26 µM [activator, partial curve] | 

A stretch from the list above:
SMILES | Potency | activity change, negative = inhibition
CC(NC(=O)c1ccccc1NC(=O)CN1CCc2ccccc2C1)c1ccccc1 (stereo not given) | inconclusive: 20.6 µM [activator, single point] | 
COc1ccccc1NC(=O)c1ccc(-n2ccnc2)c([N+](=O)[O-])c1 | inconclusive: 6.51 µM [activator, partial curve, poor fit] | 
COc1ccccc1C(=O)Nc1c(C(=O)N(C)Cc2ccccc2)sc2nc(C)c(Cl)c(C)c12 | active: 14.6 µM | 
CCOC(=O)CNC(=O)Cc1ccc(Cl)cc1 |  | inactive: 4.53%
Cc1ccc(C)c(CNc2ccc(S(=O)(=O)N3CCCCC3)cc2)c1 | inconclusive: 6.51 µM [falling, full curve, poor fit] | 
CCN(CC)CCNC(=O)c1cc(-c2cccnc2)nc2ccc(S(=O)(=O)N3CCC(C)CC3)cc12 | inconclusive: 14.6 µM [falling, partial curve, poor fit] | 
CC(=O)OCC(=O)Nc1ccc(N=Nc2ccccc2)cc1 | inconclusive: 5.8 µM [activator, full curve] | 
CCOc1ccccc1CNC(=O)C1CCCN(c2ncnc3onc(-c4ccc(F)cc4)c23)C1 (stereo not given) | inconclusive: 0.0046 µM [falling, full curve, poor fit] | 
CCCCOc1ccc(CN=C(N)N)cc1Cl | inconclusive: 32.6 µM [falling, partial curve, poor fit] | 
O=C(NCc1cccs1)C1CCCN(C(=O)Nc2ccc(F)cc2)C1 (stereo not given) | inconclusive: 14.6 µM [falling, partial curve] | 
O=C(Nc1ccc(Cl)cc1)c1cc2nc(C3CC3)cc(C(F)(F)F)n2n1 | inconclusive: 25.9 µM [falling, single point] | 
COc1cccc(-c2cc(C(F)(F)F)nc(NCCc3ccccc3)n2)c1 |  | inactive: 4.43% [at 9.27 µM]
Clc1ccc(CNc2ncccn2)cc1 | inconclusive: 1.84 µM [activator, full curve] | 
Cc1nn(-c2ccc(F)cc2)c2sc(C(=O)N3CCCCCC3)cc12 | inconclusive: 7.31 µM [activator, partial curve, poor fit] | 
Cc1cc(O)c(C(=O)/C=C/c2ccc(C(C)C)cc2)c(=O)o1 | inconclusive: 10.3 µM [activator, single point] | 
CCCCc1ccc(NC(=S)NCCO)cc1 | inconclusive: 11.6 µM [activator, partial curve] | 

(cont.)

SMILES | Potency | activity change, negative = inhibition
O=C(CNS(=O)(=O)c1ccc(Cl)cc1)N1CCN(c2ccc(F)cc2)CC1 | inconclusive: 0.0065 µM [falling, full curve, poor fit] | 
O=C(CSc1cnc2ccccc2n1)NC1CCCC1 | inconclusive: 4.61 µM [falling, partial curve, poor fit] | 
c1ccc(-c2csc(N3CCc4ccccc4C3)n2)cc1 | inconclusive: 11.6 µM [activator, partial curve] | 
NC(=O)COc1ccccc1 |  | inactive: 16.7%
O=C(C1CCC1)N1CCc2cc(S(=O)(=O)Nc3ccc4c(c3)OCCO4)ccc21 | inconclusive: 7.31 µM [falling, partial curve, poor fit] | 
CN(CCc1ccccn1)c1ccc([N+](=O)[O-])cn1 | inconclusive: 1.46 µM [falling, partial curve, poor fit] | 
CC(C)(C)C(=O)Nc1nc(=S)ss1 | inconclusive: 20.6 µM [falling, partial curve, poor fit] | 
CNC(=O)Cn1cc(S(=O)(=O)Cc2ccccc2F)c2ccccc21 | inconclusive: 29.1 µM [activator, single point] | 
O=C(Nc1ccc(Oc2cccc(C(F)(F)F)c2)nc1)c1ccccc1 | inconclusive: 7.31 µM [falling, partial curve] | 
COC(=O)c1ccc(CNC(=O)c2cc3ccccc3oc2=O)cc1 | inconclusive: 32.6 µM [activator, partial curve, poor fit] | 
CCOc1ccc(CCNC(=O)c2cnc3sc(N4CCC(C)CC4)nn3c2=O)cc1 | inconclusive: 10.3 µM [activator, partial curve] | 
C#CCSc1nnc(-c2ccc(O)cc2)o1 | inconclusive: 23.1 µM [activator, single point] | 
CCc1ccc2nc3sc(C(=O)O)cc3cc2c1 | inconclusive: 13 µM [activator, partial curve, poor fit] | 
COc1ccc(-c2oc3ncn4nc(COc5c(C)cccc5C)nc4c3c2-c2ccc(OC)cc2)cc1 |  | inactive: 1.63%
Cc1nnc(SCC(=O)N2CCN(c3cccc(Cl)c3)CC2)n1C1CC1 | inconclusive: 29.1 µM [falling, single point] | 
COc1cc(OC)c2c(c1)C(=O)OC2c1cc(OC)c(OC)cc1C (stereo not given) |  | inactive: -12.2%
COc1ccc(S(=O)(=O)NCCSC(C)(C)C)cc1Cl | inconclusive: 29.1 µM [falling, partial curve, poor fit] | 
CC1(C)N([O-])C2=C(c3ccccc3C2=O)[N+](=O)C1(C)C | inconclusive: 1.84 µM [falling, partial curve, poor fit] | 
Cc1cc(Br)ccc1NC(=O)C1CCN(S(=O)(=O)c2cccc3nsnc23)CC1 | inconclusive: 32.6 µM [falling, single point] | 
O=C(CN1C(=O)NC(Cc2ccccc2)(Cc2ccccc2)C1=O)NCC1CCCCC1 | active: 23.1 µM | 
O=C(NCc1ccco1)c1nc2c(nnn2Cc2ccccc2Cl)c(=O)[nH]1 | active: 4.61 µM | 
CC(=O)c1ccc(N2CCN(S(=O)(=O)c3ccc4c(c3)CC(C)N4C(=O)C3CC3)CC2)cc1 (stereo not given) | active: 5.8 µM | 

SMILES | Potency | activity change, negative = inhibition
Cc1c(NC(=S)/C=C2\N(C)c3ccccc3C2(C)C)c(=O)n(-c2ccccc2)n1C |  | inactive: -15.5%
Cn1c(=O)c2c(ncn2CCOc2cccc(Br)c2)n(C)c1=O | inconclusive: 14.6 µM [falling, partial curve] | 
CN(C)c1ccc(Nc2c3c4c(cccc4n(C)c2=O)C(=O)c2ccccc2-3)cc1 | active: 8.2 µM | 
CCOC(=O)c1ccc(NC(=O)N2CCOc3ccccc32)cc1 | inconclusive: 29.1 µM [falling, single point] | 
O=C(CSc1ccccn1)Nc1nc2ccccc2s1 | inconclusive: 29.1 µM [activator, single point] | 
CCc1ccc(O)c(-c2cc(C(=O)Nc3cccnc3)[nH]n2)c1 | inconclusive: 25.9 µM [activator, single point] | 
NC(=NC(=O)c1ccc(Cl)cc1)N1N=CCC1c1ccccc1 (stereo not given) | inconclusive: 18.4 µM [falling, single point] | 
COc1ccc(-c2cc(C)no2)cc1S(=O)(=O)NC(C)C | inconclusive: 6.51 µM [activator, partial curve, poor fit] | 
CCn1cnc2cc(NCc3nc4ccccc4n3C)ccc21 | inconclusive: 0.326 µM [activator, full curve, poor fit] | 
CCc1nnc(NC(=O)Cc2sc(C)nc2-c2ccc(C)cc2)s1 | inconclusive: 29.1 µM [falling, single point] | 
CCC1CCCCN1C(=O)CSc1nnc(CNC(=O)COc2ccc(Cl)cc2)o1 (stereo not given) | inconclusive: 2.06 µM [falling, full curve, poor fit] | 
C=CCn1nc([N+](=O)[O-])nc1Sc1cccc2cccnc12 | inconclusive: 23.1 µM [falling, single point] | 
Cn1nnnc1SCCCNCc1ccccc1OCc1ccccc1Cl | inconclusive: 13 µM [falling, partial curve] | 
CNc1c2cccc(C)c2nc2c(C(=O)NCCN(C)C)cccc12 | active: 1.46 µM | 
O=C(NCc1ccccn1)c1ccc(NS(=O)(=O)c2cccc(Cl)c2)cc1 | inconclusive: 2.59 µM [falling, partial curve] | 
Cc1ccc(NC(=O)CSc2ncc3c(n2)-c2ccc(Cl)cc2N(C)S3(=O)=O)cc1F | inconclusive: 7.31 µM [falling, partial curve, poor fit] | 
CCCc1ccc2oc(C(=O)N3CCC[C@H]3CO)c(C)c2c1 | inconclusive: 2.91 µM [activator, partial curve] | 
O=C(NCc1c(O)ccc2ccccc12)c1ccccc1 | inconclusive: 32.6 µM [falling, single point] | 
CCOC(=O)C1CCCN(C(=O)c2sc3nc(C)nc(N4CCOCC4)c3c2C)C1 (stereo not given) |  | inactive: -3.67%
O=C(CSC1=Nc2ccccc2C2=NC(c3ccccc3)C(=O)N12)NC1CCCCC1 (stereo not given) |  | inactive: -26.5%
COc1ccc(-c2c[n+]3c(n2-c2ccc(C)cc2)CCCCC3)cc1 | inconclusive: 11.6 µM [falling, partial curve, poor fit] | 

Source: PubChem BioAssay AID504444 (National Center for Advancing Translational Sciences (NCATS), 2011)
